Laboratory results as given in patent US20080207532A1, “Use of Nordihydroguaiaretic Acid Derivatives in the Treatment of Drug Resistant Cancer, Viral and Microbial Infection” (Johns Hopkins University, priority 2004, published 2008).
“And” between values parts separate entries of the source, which are not always exact repeats. Equal entries are not always repeated.

Test system: NCI/ADR-RES cells
Assay: SRB cytotoxicity assay with median-effect / combination index analysis
Assay type: cell-based, human
Details: three days

**Q.** For `COc1cccc2c1C(=O)c1c(O)c3c(c(O)c1C2=O)C[C@@](O)(C(=O)CO)C[C@@H]3O[C@H]1C[C@H](N)[C@H](O)[C@H](C)O1` [Dox, doxorubicin], which “m, shape of the dose-effect curve” value is on record?
**A.** 0.49

**Q.** `COc1ccc(C[C@@H](C)[C@@H](C)Cc2ccc(OC)c(OC)c2)cc1OC` [M4N, tetra-o-methyl nordihydroguaiaretic acid] was tested. Which “m, shape of the dose-effect curve” value did it give?
**A.** 0.91 and 0.52

**Q.** For `CC(=O)O[C@H]1C(=O)[C@@]2(C)[C@H]([C@H](OC(=O)c3ccccc3)[C@]3(O)C[C@H](OC(=O)[C@H](O)[C@@H](NC(=O)c4ccccc4)c4ccccc4)C(C)=C1C3(C)C)[C@]1(OC(C)=O)CO[C@@H]1C[C@@H]2O` [paclitaxel], which “m, shape of the dose-effect curve” value is on record?
**A.** 0.59
